According to publication PMC11633110:

Molecular target: T1, SydR' (WT, CC) (Sinorhizobium meliloti Rm2011) (UniProt Q92XY2)
T1 sequence (looked up): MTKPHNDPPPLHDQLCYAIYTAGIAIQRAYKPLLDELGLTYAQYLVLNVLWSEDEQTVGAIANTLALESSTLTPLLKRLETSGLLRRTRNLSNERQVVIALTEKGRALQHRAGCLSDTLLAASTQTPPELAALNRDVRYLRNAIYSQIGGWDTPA
Test: EMSA
Details: 1 uM NaOCl (oxidative inhibition); 10 mM Tris-HCl pH 8, 50 mM KCl, 0.5 mM EDTA, 10% glycerol, 0.5 mM DTT, 10 nM DNA, 25°C 25 min; 8% PAGE in 0.5x TBE; recombinant protein; residues 1-155; protein details: His6 (C-terminal as stated, pET28a NdeI/SalI); probe letters rebuilt from the primers and the genome

TCTGGGCTCCTTTGCGCACCAATATAATCAAGATTACCGCGAAAACCAATATCGCGATAAGAGATATGTTGACGAGCAGTTCAATATCTGACAACTTAAATATATCGCGATAACAGTTATCGCTATCAACGAAAGGAAAAAGCC (double strand) [sydR-SMa2023 intergenic region, 144 bp]
binding result: binds more weakly

For at least one entry, the source does not settle the construct or the ends of the probe. A weaker result is weaker than the reference pair of the same experiment. Protein sequences can lack the tags named with them.
